Laboratory results as given in the supplement of paper PMC8728848.
The other results are listed elsewhere or left out.

What was measured:
Assay in all cases: glycan array binding signal (z-score within array); higher = stronger binding
Conditions in all cases: glycan notation: IUPAC condensed, linker removed
[1] = biological target: GlcNAc(b1-2)Man(a1-3)[GlcNAc(b1-2)Man(a1-6)]Man(b1-4)GlcNAc(b1-4)GlcNAc
In short: (§1)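 Negative Z-scores can be read as non-binding. The Z-score is calculated within each array and then averaged across arrays of one protein sequence at different concentrations or buffers and across linkers. Arrays, 3228 in all, were curated from the Consortium for Functional Glycomics database and kept only where the protein sequence was available.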

GlcNAc(b1-3)Gal = biological target: GlcNAc(b1-3)Gal
In short: as §1

[2] = biological target: GlcNAc(b1-3)Gal(b1-3)GalNAc
In short: as §1

GlcNAc(b1-3)Gal(b1-4)Glc = biological target: GlcNAc(b1-3)Gal(b1-4)Glc
In short: as §1

[3] = biological target: GlcNAc(b1-3)Gal(b1-4)GlcNAc
In short: as §1

[4] = biological target: GlcNAc(b1-3)Gal(b1-4)GlcNAc(b1-3)Gal(b1-4)GlcNAc
In short: as §1

GlcNAc(b1-3)GalNAc = biological target: GlcNAc(b1-3)GalNAc
In short: as §1

[5] = biological target: GlcNAc(b1-3)[GlcNAc(b1-4)][GlcNAc(b1-6)]GlcNAc
In short: as §1

[6] = biological target: GlcNAc(b1-3)[GlcNAc(b1-6)]Gal(b1-4)GlcNAc
In short: as §1

[7] = biological target: GlcNAc(b1-3)[GlcNAc(b1-6)]GlcNAc
In short: as §1

[8] = biological target: GlcNAc(b1-4)Gal(b1-4)GlcNAc
In short: as §1

[9] = biological target: GlcNAc(b1-4)GlcNAc(b1-4)GlcNAc
In short: as §1

[10] = biological target: GlcNAc(b1-4)GlcNAc(b1-4)GlcNAc(b1-4)GlcNAc(b1-4)GlcNAc
In short: as §1

[11] = biological target: GlcNAc(b1-4)GlcNAc(b1-4)GlcNAc(b1-4)GlcNAc(b1-4)GlcNAc(b1-4)GlcNAc
In short: as §1

[12] = biological target: GlcNAc(b1-4)[GlcNAc(b1-6)]GalNAc
In short: as §1

[13] = biological target: GlcNAc(b1-6)Gal(b1-4)GlcNAc
In short: as §1

GlcNAc(b1-6)GalNAc = biological target: GlcNAc(b1-6)GalNAc
In short: as §1

Kdn(a2-3)Gal(b1-3)GlcNAc = biological target: Kdn(a2-3)Gal(b1-3)GlcNAc
In short: as §1

Kdn(a2-3)Gal(b1-4)GlcNAc = biological target: Kdn(a2-3)Gal(b1-4)GlcNAc
In short: as §1

[14] = biological target: Man(a1-2)Man(a1-2)Man(a1-3)Man
In short: as §1

[15] = biological target: Man(a1-2)Man(a1-2)Man(a1-3)[Man(a1-2)Man(a1-3)[Man(a1-2)Man(a1-6)]Man(a1-6)]Man(b1-4)GlcNAc(b1-4)GlcNAc
In short: as §1

[16] = biological target: Man(a1-2)Man(a1-2)Man(a1-3)[Man(a1-2)Man(a1-6)[Man(a1-3)]Man(a1-6)]Man(b1-4)GlcNAc(b1-4)GlcNAc
In short: as §1

[17] = biological target: Man(a1-2)Man(a1-2)Man(a1-6)[Man(a1-3)]Man
In short: as §1

Man(a1-2)Man(a1-3)Man = biological target: Man(a1-2)Man(a1-3)Man
In short: as §1

[18] = biological target: Man(a1-2)Man(a1-3)[Man(a1-2)Man(a1-6)]Man
In short: as §1

[19] = biological target: Man(a1-2)Man(a1-3)[Man(a1-3)[Man(a1-6)]Man(a1-6)]Man(b1-4)GlcNAc(b1-4)GlcNAc
In short: as §1

[20] = biological target: Man(a1-2)Man(a1-3)[Man(a1-6)]Man(a1-6)[Man(a1-2)Man(a1-3)]Man(b1-4)GlcNAc(b1-4)GlcNAc
In short: as §1

Man(a1-3)[Man(a1-6)]Man = biological target: Man(a1-3)[Man(a1-6)]Man
In short: as §1

[21] = biological target: Man(a1-3)[Man(a1-6)]Man(a1-6)[Man(a1-3)]Man(b1-4)GlcNAc(b1-4)GlcNAc
In short: as §1

[22] = biological target: Man(a1-3)[Man(a1-6)]Man(b1-4)GlcNAc(b1-4)GlcNAc
In short: as §1

Man(b1-4)GlcNAc = biological target: Man(b1-4)GlcNAc
In short: as §1

Neu5Ac(a2-3)Gal = biological target: Neu5Ac(a2-3)Gal
In short: as §1

[23] = biological target: Neu5Ac(a2-3)Gal(b1-3)GalNAc
In short: as §1

[24] = biological target: Neu5Ac(a2-3)Gal(b1-3)GalNAc(b1-3)Gal(a1-4)Gal(b1-4)Glc
In short: as §1

[25] = biological target: Neu5Ac(a2-3)Gal(b1-3)GalNAc(b1-4)[Neu5Ac(a2-3)]Gal(b1-4)Glc
In short: as §1

[26] = biological target: Neu5Ac(a2-3)Gal(b1-3)GalNAc6S
In short: as §1

[27] = biological target: Neu5Ac(a2-3)Gal(b1-3)GlcNAc
In short: as §1

[28] = biological target: Neu5Ac(a2-3)Gal(b1-3)GlcNAc(b1-3)Gal(b1-3)GlcNAc
In short: as §1

[29] = biological target: Neu5Ac(a2-3)Gal(b1-3)GlcNAc(b1-3)Gal(b1-4)GlcNAc
In short: as §1

[30] = biological target: Neu5Ac(a2-3)Gal(b1-3)GlcNAc6S
In short: as §1

[31] = biological target: Neu5Ac(a2-3)Gal(b1-3)[Fuc(a1-4)]GlcNAc
In short: as §1

[32] = biological target: Neu5Ac(a2-3)Gal(b1-3)[Fuc(a1-4)]GlcNAc(b1-3)Gal(b1-4)[Fuc(a1-3)]GlcNAc
In short: as §1

[33] = biological target: Neu5Ac(a2-3)Gal(b1-3)[Neu5Ac(a2-3)Gal(b1-4)]GlcNAc
In short: as §1

B1: Tim-4 (Mus musculus), Q6U7R4 (protein)
chain: MSKGLLLLWLVTELWWLYLTPAASEDTIIGFLGQPVTLPCHYLSWSQSRNSMCWGKGSCPNSKCNAELLRTDGTRIISRKSTKYTLLGKVQFGEVSLTISNTNRGDSGVYCCRIEVPGWFNDVKKNVRLELRRATTTKKPTTTTRPTTTPYVTTTTPELLPTTVMTTSVLPTTTPPQTLATTAFSTAVTTCPSTTPGSFSQETTKGSAFTTESETLPASNHSQRSMMTISTDIAVLRPTGSNPGILPSTSQLTTQKTTLTTSESLQKTTKSHQINSRQTILIIACCVGFVLMVLLFLAFLLRGKVTGANCLQRHKRPDNTEDSDSVLNDMSHGRDDEDGIFTL
glycan array binding signal (z-score) [1]: -0.164
glycan array binding signal (z-score) (GlcNAc(b1-3)Gal): -0.255
glycan array binding signal (z-score) [2]: -0.141
glycan array binding signal (z-score) (GlcNAc(b1-3)Gal(b1-4)Glc): -0.648
glycan array binding signal (z-score) [3]: 0.087
glycan array binding signal (z-score) [4]: 0.823
glycan array binding signal (z-score) (GlcNAc(b1-3)GalNAc): -0.087
glycan array binding signal (z-score) [5]: 1.75
glycan array binding signal (z-score) [6]: -0.744
glycan array binding signal (z-score) [7]: -0.736
glycan array binding signal (z-score) [8]: -0.845
glycan array binding signal (z-score) [9]: 0.106
glycan array binding signal (z-score) [10]: -0.305
glycan array binding signal (z-score) [11]: -0.439
glycan array binding signal (z-score) [12]: -0.554
glycan array binding signal (z-score) [13]: 0.626
glycan array binding signal (z-score) (GlcNAc(b1-6)GalNAc): -0.269
glycan array binding signal (z-score) (Kdn(a2-3)Gal(b1-3)GlcNAc): -0.265
glycan array binding signal (z-score) (Kdn(a2-3)Gal(b1-4)GlcNAc): 0.306
glycan array binding signal (z-score) [14]: 0.264
glycan array binding signal (z-score) [15]: 0.032
glycan array binding signal (z-score) [16]: -0.382
glycan array binding signal (z-score) [17]: 0.027
glycan array binding signal (z-score) (Man(a1-2)Man(a1-3)Man): -0.066
glycan array binding signal (z-score) [18]: -0.185
glycan array binding signal (z-score) [19]: -0.346
glycan array binding signal (z-score) [20]: -0.16
glycan array binding signal (z-score) (Man(a1-3)[Man(a1-6)]Man): 0.911
glycan array binding signal (z-score) [21]: -0.096
glycan array binding signal (z-score) [22]: -0.296
glycan array binding signal (z-score) (Man(b1-4)GlcNAc): 0.33
glycan array binding signal (z-score) (Neu5Ac(a2-3)Gal): -0.733
glycan array binding signal (z-score) [23]: -0.218
glycan array binding signal (z-score) [24]: -0.701
glycan array binding signal (z-score) [25]: 0.429
glycan array binding signal (z-score) [26]: -0.314
glycan array binding signal (z-score) [27]: -0.448
glycan array binding signal (z-score) [28]: -0.753
glycan array binding signal (z-score) [29]: -0.953
glycan array binding signal (z-score) [30]: 0.27
glycan array binding signal (z-score) [31]: -0.562
glycan array binding signal (z-score) [32]: -0.184
glycan array binding signal (z-score) [33]: -0.642
